Consider 66 sequences from PubChem BioAssay AID1347423 (Functional Genomics Laboratory (NCATS/FGL), 2020).

About 210 (0.4%) of roughly 52,000 sequences were called active.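 The calls were made as follows: active = gene whose silencing raises cell survival under the drug, median off-target-corrected z-score across its silencing RNAs 2 or more; inactive = the rest.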 The list shows a part of the results.

This assay is described as follows: Resistance to Poly (ADP-Ribose) Polymerase inhibitor: Gene Identification via Genome-wide siRNA Screen. To be noted: mouse BRCA2 R2336H ES cells, olaparib, CellTiter-Glo viability; active compounds read high. In short, it runs like this: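 Genome-wide siRNA screen (3 siRNAs/gene, 20 nM) in mouse ES cells carrying hypomorphic BRCA2 R2336H; olaparib 500 nM added 48 h post-transfection, CellTiter-Glo viability 72 h later. Normalized to plate-median negative control; MAD z-scores, gene median, seed-adjusted.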
(In general: In ATP-based viability assays light output follows the ATP content of the culture.)
Consider GCCCUACCUUGAAUCCCAUTT against Olfr532, for which the z-score is inactive: -1.48.
On to “GCCAGUCAUUCAGUAAAGUTT against C130067A03Rik”, for which the z-score was inactive: -1.71.
For the sequence “GGGAGAAGAUGUCCAUCAATT against 1700001L23Rik”, the z-score is inactive: -0.649.
In the case of CGAGAUCUGACAUAGUGUCTT against Pdia6, the z-score was inactive: -0.0142.
In the case of GGGCUGUUCCAUUUCUUUATT against Atcay, the z-score is inactive: 0.257.
The same measure for GCAGCGGCUUUACAAGGAUTT against Tceb2: inactive: -2.04; for “GGACAAAAGCAGCUUGAGUTT against 1810063B05Rik”: inactive: -0.476.
For the sequence “GGGUAGAAUGUGUGUGUCUTT against 1300007F04Rik”, the z-score is inactive: -1.14.
Take GGAAUAUGACUACAUGAAATT against Calu: the z-score is inactive: 0.98.
Next, GUUCUCACUCAAGGUCACCTT against BC035954: inactive: 2.89.
Regarding GGAUACAAAUGAAAGCUUATT against Zfp354b, the z-score is inactive: 0.123.
As to GGGAUGGACAAGUUGUACUTT against Renbp, the z-score is inactive: -0.657.
On to CGUGGGCUCUCUAGAUGAATT against S100a13, for which the z-score was inactive: 0.869.
Consider GGAUGACGACGAUUACAACTT against Nkx6-1, for which the z-score is inactive: -0.525.
As for CCAGCUUUGGGAAAUACCGTT against Sertad1, the z-score was inactive: -0.411.
As to GGAAAUGCAGAAGUUCUUUTT against Mmp7, the z-score is inactive: 0.139.
Take “CCUAGAAAAGUCAUUGUCATT against 3010003L21Rik”: the z-score was inactive: 1.2.
CCUUCGAUGAAGUAUACAATT against Ipo4: the z-score is inactive: -1.13.
Turning to “CCCUUCUGUAAACACCACATT against 1700055N04Rik”, the z-score was inactive: -1.5.
The same measure for “GGCGGCACAAAUUGUUUUUTT against A630002K24”: inactive: -1.38; for GCGAAACACAUAAUGAGUCTT against Brrn1: inactive: 0.511.
As for CCUUGUUCCCGAAAUACCGTT against Hrb2, the z-score was inactive: 0.916.
“GGCCUAUUCACAGGUGUGATT against C330046G03Rik”: the z-score was inactive: -2.15.
For the sequence GGAGCUGGAAGAGUGGUAUTT against Clta, the z-score is inactive: 0.775.
With “AGACUGGGUUGUGAAGAUATT against 4930563M21Rik”, the z-score is inactive: -0.598.
The same measure for GAUGUUCUUCUUACACUCCTT against Olfr559: inactive: -0.553.
Take “GCAUUUCCUAGUGUCUAUUTT against A930027H06Rik”: the z-score was inactive: -0.919.
As to “GGACUCUUUGACCACAAGCTT against 2700085M18Rik”, the z-score is inactive: -0.985.
For GGCAAAGUUUGACCAGUGUTT against Ndufa8, the z-score is inactive: -0.829.
Next, GGUGUAAUUCUCAUUGUGCTT against Slc10a2: inactive: -0.177; “GGUACUCAACAUGAUGCCCTT against 1110001K21Rik”: inactive: 1.04.
Take GAGUCUGGUUAUGUGGCAUTT against Scgb1a1: the z-score is inactive: 0.163.
Consider GCAUCAUUAAAAAGGAGAGTT against Shmt1, for which the z-score is inactive: -2.11.
Regarding “GGUUUUUGAAUUCCAGUUGTT against 9030611N15Rik”, the z-score is inactive: 0.177.
For GGAGUCAACACACAUCAAGTT against Zfp13, the z-score is inactive: 0.5.
For the sequence “GGAUUCCAAACCAGAAAACTT against 4930455F23Rik”, the z-score is inactive: -0.0775.
As to “GCAAGGUGAUUUGUGUUCGTT against 6430556C10Rik”, the z-score was inactive: -0.968.
Regarding GGCAACAUUCCUUAUUCACTT against Sh3bgrl3, the z-score was inactive: 0.287.
On to “GCCUUGCCCUUGUGUUUCUTT against 1110002E23Rik”, for which the z-score is inactive: 1.45.
For “GCUAGUAUCAUGGAACCUCTT against 4933408F15”, the z-score was inactive: -0.0262.
Turning to CGGACUUUCCCGGUAACUATT against Rpo1-1, the z-score is inactive: -2.25.
GGAAGACUCUUGGAUUCUCTT against Evi5: the z-score was inactive: 0.0997.
Consider GGGUUUUUAGCUAAUACUATT against Pdk1, for which the z-score was inactive: -0.333.
Consider GGGCUGUGAUCUUAUUUCATT against Tpk1, for which the z-score was inactive: 0.0513.
For GGAUUGAUAAUUUCCUGAATT against Nol6, the z-score was inactive: -0.924.
Next, “GCACGGUCUUAUUGAGAGGTT against 2210018M03Rik”: inactive: 0.0257; CCGAGACAUAUACAAAGGATT against Klkb1: inactive: -1.1.
Regarding GCAUUCAGACCAUGACACUTT against LOC209387, the z-score is inactive: -0.793.
As to GGUCAUCAGAAUGUGAAAATT against Zfp354a, the z-score is inactive: -0.144.
Regarding GGAACUAUCACGUGUUCUATT against Myo7a, the z-score is inactive: 2.01.
Regarding GGCGGAAAUCUUGAGCAAATT against Slc28a2, the z-score is inactive: -0.0691.
On to CCGAGGCAUCUUAGCUUAATT against Nxt1, for which the z-score was inactive: -0.221.
For GGGCUACAAGAAAAAGUAUTT against Krt2-18, the z-score was inactive: -1.86.
Next, CCUCUAGCCAUCUACUUUGTT against Rad9b: inactive: -2.68; GCCCACCUGUGCAAUCAUATT against Arl4: inactive: -0.734; CCUCCAUUGCAUGUCCCAATT against ADAM26b: inactive: -2.61.
CCAUAUCAUUGAUAUAGCUTT against Thoc3: the z-score is inactive: 1.17.
For GCUCCAGUUGCCUCUUUUUTT against Olfr900, the z-score is inactive: 0.683.
Take “CCGCUGUGAUACCAUAUACTT against G630049C14Rik”: the z-score is inactive: 1.07.
Next, CGCAGAAGUGCGUGAUUUCTT against Dfna5h: inactive: 1.49; GUCGCCGUGUAUGUAUCAUTT against Olfr727: inactive: 1; GGAGGGUCCUUUUUCACAUTT against Asph: inactive: -0.44.
The same measure for GGUUAAAGGAAAAUGACACTT against Cdh6: inactive: 1.79.
Consider GGAUUUCUUUGGUGAGACUTT against Gstk1, for which the z-score was inactive: -1.54.
Take GGUGGAGGAUUUUUCAGAUTT against Hs6st2: the z-score was inactive: -0.83.
On to GCAGUGGGAGUAUACAUCUTT against Olfr847, for which the z-score is inactive: 1.67.
